The text below walks through data of paper PMC5069779.

By UniProt entry, the sequences of proteins in these tests, tags left out.
UniProt Q13153: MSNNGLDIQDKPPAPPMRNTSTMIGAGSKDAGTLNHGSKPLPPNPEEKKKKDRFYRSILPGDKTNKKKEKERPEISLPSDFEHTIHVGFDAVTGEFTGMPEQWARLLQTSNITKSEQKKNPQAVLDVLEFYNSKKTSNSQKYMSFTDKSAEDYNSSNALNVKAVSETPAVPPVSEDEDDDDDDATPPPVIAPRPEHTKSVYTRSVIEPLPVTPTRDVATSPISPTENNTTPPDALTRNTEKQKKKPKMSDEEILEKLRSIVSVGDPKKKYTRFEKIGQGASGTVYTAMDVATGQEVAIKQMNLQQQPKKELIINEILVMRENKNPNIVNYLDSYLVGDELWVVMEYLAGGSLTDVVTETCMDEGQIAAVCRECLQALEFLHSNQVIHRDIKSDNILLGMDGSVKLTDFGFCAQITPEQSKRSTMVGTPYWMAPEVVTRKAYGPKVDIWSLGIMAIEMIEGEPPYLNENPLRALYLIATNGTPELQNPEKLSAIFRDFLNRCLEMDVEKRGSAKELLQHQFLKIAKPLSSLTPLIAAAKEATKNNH

Test [1] has as its target HA-tagged MIIP (155-388), N-terminal deletion (human) (UniProt Q5JXC2). The test is described as follows: co-IP; anti-HA immunoprecipitation from HEC1B cells transfected for 24 h with HA-tagged wild-type or truncated MIIP; blot for PAK1 and HA.
Test [2] concerns the target GST-PAK1 PBD (p21-binding domain of PAK1) coupled to agarose beads (UniProt Q13153). The experiment in a line: pull-down; Rac activity assay kit: GST-PAK1 PBD beads incubated with lysates of HEC1A cells (MIIP siRNA or scramble control siRNA) or HEC1B cells (Ad-MIIP or Ad-Ev); western blot; only the target purified.

No constants are given. Whether binding was seen depends on the method and setting. Binding seen in cells or lysates may run through a third protein. Binding calls can cover weak binding; strength is not graded here. For some assays here: Tags and fused reporters may be left off the sequences shown.

Take “Endogenous PAK1 (p21-activating kinase 1) (from UniProt Q13153 1-545)”: the binding entry in test [1] is reported as “binds”.

B1: Migration and invasion inhibitory protein (MIIP) expressed from adenovirus (Ad-MIIP) in HEC1B cells (protein, UniProt Q5JXC2 1-388)
chain: MVEAEELAQLRLLNLELLRQLWVGQDAVRRSVARAASESSLESSSSYNSETPSTPETSSTSLSTSCPRGRSSVWGPPDACRGDLRDVARSGVASLPPAKCQHQESLGRPRPHSAPSLGTSSLRDPEPSGRLGDPGPQEAQTPRSILAQQSKLSKPRVTFSEESAVPKRSWRLRPYLGYDWIAGSLDTSSSITSQPEAFFSKLQEFRETNKEECICSHPEPQLPGLRESSGSGVEEDHECVYCYRVNRRLFPVPVDPGTPCRLCRTPRDQQGPGTLAQPAHVRVSIPLSILEPPHRYHIHRRKSFDASDTLALPRHCLLGWDIFPPKSEKSSAPRNLDLWSSVSAEAQHQKLSGTSSPFHPASPMQMLPPTPTWSVPQVPRPHVPRQKP
Take B1: the binding result in test [2] is on record as “binds”.
